Experimental data as given in the supplement of paper PMC12067093, “Discovery and optimisation of a covalent ligand for TRIM25 and its application to targeted protein ubiquitination” (Chemical Science, 2025).
The list shows a part of the results.

Amino acid sequences for entries named in this document (tags omitted). A change or cut given only in a name is not applied to a line headed by its entry.
UniProt P50748: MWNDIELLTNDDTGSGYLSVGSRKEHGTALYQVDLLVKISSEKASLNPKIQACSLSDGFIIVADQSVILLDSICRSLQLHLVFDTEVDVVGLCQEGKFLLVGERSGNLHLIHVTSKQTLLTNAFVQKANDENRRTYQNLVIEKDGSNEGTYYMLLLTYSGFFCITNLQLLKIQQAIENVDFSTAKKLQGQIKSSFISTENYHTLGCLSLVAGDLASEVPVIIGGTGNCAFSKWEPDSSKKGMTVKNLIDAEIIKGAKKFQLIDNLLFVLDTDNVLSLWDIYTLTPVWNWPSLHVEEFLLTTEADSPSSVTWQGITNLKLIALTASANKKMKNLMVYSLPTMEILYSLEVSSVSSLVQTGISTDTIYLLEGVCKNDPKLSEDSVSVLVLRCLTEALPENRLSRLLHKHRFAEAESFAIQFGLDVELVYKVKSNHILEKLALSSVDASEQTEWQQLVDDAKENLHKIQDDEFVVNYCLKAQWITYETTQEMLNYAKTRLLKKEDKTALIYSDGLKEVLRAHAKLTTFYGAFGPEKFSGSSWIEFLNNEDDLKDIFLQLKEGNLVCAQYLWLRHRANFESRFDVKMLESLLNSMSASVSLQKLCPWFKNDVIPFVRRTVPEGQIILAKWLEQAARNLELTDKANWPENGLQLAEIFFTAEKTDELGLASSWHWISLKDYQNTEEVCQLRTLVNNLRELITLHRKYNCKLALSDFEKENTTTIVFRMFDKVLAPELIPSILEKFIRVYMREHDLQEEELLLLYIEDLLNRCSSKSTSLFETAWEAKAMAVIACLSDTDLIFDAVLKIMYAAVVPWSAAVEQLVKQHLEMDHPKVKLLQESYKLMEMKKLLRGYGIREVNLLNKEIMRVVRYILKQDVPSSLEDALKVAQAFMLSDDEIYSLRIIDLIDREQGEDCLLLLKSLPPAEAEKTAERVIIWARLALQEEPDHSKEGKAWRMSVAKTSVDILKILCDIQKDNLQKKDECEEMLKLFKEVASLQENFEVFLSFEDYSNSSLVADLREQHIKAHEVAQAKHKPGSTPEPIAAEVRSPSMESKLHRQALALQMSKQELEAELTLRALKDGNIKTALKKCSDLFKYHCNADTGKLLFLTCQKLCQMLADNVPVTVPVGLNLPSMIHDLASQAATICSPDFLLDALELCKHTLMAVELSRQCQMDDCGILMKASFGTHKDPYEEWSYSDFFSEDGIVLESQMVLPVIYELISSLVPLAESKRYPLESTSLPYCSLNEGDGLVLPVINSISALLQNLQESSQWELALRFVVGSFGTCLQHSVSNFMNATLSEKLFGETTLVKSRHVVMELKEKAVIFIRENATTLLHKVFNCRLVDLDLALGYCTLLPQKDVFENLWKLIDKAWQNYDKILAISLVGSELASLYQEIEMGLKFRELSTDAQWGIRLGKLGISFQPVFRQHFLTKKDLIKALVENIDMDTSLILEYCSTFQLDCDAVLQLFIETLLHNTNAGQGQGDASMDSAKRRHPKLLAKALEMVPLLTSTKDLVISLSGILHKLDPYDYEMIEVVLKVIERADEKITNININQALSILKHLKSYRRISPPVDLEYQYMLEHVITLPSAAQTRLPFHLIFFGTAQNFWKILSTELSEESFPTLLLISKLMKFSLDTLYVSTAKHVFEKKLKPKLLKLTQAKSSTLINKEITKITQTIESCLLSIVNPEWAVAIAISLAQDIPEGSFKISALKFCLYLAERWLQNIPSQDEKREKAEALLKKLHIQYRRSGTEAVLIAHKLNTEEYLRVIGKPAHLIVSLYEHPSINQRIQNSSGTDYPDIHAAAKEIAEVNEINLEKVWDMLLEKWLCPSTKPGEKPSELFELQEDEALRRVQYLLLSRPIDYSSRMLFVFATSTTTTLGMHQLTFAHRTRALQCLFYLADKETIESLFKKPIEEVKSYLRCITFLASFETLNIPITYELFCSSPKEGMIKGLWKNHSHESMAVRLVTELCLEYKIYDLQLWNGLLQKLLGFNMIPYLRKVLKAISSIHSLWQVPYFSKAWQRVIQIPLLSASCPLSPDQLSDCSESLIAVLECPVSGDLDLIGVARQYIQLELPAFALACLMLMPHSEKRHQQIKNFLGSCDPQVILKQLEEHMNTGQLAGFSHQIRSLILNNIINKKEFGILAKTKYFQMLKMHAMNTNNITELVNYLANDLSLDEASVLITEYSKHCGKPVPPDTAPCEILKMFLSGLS
UniProt Q969R5, whole entry, looked up: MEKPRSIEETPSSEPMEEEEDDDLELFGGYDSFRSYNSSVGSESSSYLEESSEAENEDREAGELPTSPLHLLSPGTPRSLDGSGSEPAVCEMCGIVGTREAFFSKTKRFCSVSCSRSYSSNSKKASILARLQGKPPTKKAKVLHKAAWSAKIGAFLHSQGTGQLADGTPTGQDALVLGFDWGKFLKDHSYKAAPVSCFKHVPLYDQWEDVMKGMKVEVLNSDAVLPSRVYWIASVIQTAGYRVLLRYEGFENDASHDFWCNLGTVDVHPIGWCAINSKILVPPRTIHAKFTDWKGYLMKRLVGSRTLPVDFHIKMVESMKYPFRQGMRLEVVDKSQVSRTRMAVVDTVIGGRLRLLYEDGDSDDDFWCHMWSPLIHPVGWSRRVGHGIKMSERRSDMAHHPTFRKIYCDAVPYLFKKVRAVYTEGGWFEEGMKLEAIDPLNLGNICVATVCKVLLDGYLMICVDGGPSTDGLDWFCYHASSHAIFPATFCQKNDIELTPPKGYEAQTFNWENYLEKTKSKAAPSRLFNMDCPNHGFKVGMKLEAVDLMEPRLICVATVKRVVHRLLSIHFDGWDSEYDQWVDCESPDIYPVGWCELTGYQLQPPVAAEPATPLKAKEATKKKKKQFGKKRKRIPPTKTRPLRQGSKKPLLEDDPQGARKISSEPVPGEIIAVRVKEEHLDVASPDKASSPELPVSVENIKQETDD
UniProt Q15031: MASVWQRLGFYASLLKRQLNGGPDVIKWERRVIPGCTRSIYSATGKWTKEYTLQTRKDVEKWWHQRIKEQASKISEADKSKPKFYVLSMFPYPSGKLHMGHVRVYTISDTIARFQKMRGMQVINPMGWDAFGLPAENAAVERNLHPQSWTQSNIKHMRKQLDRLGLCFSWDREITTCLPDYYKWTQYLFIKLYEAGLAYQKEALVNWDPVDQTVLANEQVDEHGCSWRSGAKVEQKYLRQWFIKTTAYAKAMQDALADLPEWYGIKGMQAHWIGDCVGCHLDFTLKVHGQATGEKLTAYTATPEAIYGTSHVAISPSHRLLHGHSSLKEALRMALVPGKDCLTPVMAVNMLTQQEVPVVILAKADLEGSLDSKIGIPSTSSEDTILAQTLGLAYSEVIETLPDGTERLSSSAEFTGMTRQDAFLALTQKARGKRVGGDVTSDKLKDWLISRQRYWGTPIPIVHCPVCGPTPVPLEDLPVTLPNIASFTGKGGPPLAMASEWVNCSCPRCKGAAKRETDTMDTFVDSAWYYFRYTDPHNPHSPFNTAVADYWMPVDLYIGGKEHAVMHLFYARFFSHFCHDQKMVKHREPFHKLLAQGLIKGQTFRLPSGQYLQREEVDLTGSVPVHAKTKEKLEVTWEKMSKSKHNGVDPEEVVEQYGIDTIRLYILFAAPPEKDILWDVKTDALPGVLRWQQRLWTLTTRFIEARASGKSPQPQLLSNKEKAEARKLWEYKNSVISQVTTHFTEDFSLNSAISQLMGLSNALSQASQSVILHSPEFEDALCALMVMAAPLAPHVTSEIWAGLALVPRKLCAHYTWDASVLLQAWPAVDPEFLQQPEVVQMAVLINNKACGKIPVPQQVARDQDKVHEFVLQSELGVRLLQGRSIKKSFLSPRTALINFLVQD
UniProt P28838: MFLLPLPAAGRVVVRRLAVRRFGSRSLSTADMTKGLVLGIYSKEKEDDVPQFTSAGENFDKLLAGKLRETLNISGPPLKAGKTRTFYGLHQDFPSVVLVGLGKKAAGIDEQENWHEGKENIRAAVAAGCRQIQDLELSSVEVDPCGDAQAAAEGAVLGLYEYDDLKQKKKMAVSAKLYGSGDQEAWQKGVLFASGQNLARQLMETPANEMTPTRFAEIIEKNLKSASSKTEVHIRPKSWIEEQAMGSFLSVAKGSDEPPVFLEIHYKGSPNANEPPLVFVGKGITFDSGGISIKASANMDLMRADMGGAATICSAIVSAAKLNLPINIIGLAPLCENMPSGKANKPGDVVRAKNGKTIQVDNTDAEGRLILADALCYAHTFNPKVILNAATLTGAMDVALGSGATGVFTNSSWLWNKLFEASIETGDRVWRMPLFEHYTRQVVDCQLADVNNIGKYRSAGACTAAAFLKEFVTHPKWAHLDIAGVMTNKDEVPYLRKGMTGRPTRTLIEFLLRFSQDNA
UniProt Q9P2J5: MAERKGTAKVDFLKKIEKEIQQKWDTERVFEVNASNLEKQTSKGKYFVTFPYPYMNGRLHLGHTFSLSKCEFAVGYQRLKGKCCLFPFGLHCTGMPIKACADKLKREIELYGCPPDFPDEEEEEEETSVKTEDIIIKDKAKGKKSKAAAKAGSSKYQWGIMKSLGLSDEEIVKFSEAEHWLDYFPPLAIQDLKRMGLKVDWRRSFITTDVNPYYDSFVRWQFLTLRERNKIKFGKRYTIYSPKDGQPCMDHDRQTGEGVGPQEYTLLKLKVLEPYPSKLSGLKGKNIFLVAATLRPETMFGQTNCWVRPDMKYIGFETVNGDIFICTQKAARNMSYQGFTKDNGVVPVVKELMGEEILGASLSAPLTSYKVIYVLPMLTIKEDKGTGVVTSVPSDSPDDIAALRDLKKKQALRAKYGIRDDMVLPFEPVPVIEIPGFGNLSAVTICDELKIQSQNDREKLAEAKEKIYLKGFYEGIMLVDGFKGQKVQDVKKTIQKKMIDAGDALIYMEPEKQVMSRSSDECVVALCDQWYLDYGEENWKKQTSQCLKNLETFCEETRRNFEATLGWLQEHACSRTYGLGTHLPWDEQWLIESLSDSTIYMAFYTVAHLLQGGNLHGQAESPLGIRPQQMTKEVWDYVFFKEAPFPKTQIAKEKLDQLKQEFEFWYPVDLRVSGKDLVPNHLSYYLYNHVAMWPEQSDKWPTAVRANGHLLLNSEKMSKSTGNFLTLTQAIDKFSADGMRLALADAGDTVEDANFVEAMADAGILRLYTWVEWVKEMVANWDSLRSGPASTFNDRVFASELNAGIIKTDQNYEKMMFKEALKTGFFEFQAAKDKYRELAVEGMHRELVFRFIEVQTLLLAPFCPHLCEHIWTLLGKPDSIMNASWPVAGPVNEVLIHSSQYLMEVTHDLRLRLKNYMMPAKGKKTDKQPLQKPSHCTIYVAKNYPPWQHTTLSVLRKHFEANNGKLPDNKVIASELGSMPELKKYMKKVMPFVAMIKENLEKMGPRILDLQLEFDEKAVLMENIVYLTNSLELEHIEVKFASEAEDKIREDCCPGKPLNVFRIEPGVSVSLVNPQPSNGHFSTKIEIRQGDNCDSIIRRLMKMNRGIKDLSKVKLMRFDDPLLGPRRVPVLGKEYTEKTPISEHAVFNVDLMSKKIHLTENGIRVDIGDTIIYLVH
UniProt Q6GTX8: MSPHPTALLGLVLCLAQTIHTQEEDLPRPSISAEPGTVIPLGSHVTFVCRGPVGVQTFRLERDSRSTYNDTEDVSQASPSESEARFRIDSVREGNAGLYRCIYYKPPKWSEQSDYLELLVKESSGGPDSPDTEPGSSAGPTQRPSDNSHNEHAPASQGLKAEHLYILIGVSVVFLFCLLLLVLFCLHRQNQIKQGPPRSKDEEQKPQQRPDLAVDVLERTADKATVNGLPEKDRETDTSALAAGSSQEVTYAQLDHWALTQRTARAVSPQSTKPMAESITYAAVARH
UniProt P13796: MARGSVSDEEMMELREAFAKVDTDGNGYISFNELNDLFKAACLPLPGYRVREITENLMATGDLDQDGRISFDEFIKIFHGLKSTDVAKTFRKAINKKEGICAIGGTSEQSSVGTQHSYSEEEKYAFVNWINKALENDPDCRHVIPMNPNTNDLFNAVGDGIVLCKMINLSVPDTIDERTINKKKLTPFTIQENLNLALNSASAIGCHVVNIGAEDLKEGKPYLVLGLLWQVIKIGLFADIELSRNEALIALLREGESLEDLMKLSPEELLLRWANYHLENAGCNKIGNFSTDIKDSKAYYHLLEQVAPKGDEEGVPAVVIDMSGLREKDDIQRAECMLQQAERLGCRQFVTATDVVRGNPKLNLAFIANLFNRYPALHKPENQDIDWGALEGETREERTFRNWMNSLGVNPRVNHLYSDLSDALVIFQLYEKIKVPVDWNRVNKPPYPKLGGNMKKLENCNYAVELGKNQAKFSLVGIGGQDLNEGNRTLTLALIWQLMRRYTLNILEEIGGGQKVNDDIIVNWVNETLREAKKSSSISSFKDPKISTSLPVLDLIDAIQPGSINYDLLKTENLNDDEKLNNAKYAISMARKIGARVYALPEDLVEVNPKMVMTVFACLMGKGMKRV

Compound: CC1Cc2ccccc2N1C(=O)C1CCCN(C1)C(=O)CCl (mixture of isomers) [TRIM25 ligand 11 (diastereomer mixture)]
Experiment: probe-labelled cysteine peptide fold change vs DMSO (competition) (log2 fold change); higher = less target engagement (more negative = stronger competition)
Settings: THP-1, incubation time: 4 h
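Note: competitive chemoproteomic profiling in live THP-1 cells with an iodoacetamide desthiobiotin (IA-DTB) probe, comparing probe-labelled peptide intensities in compound-treated cells against DMSO-treated controls.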

LAMC1_P11047_367_STGHGGHCTNCQDNTDGAHCER (UniProt P11047)
probe-labelled cysteine peptide fold change (10 µM): 0.451
probe-labelled cysteine peptide fold change (50 µM): 0.0296

KRIT1_O00522_297_SACEGDSELLSR (UniProt O00522)
probe-labelled cysteine peptide fold change (10 µM): 0.101
probe-labelled cysteine peptide fold change (50 µM): -0.0711

KMT5B_Q4FZB7_54_CNGNSGFEGQSR (UniProt Q4FZB7)
probe-labelled cysteine peptide fold change (10 µM): -0.166
probe-labelled cysteine peptide fold change (50 µM): -0.314

LDHD_Q86WU2_310_IEFLDEVMMDACNR (UniProt Q86WU2)
probe-labelled cysteine peptide fold change (10 µM): 0.12
probe-labelled cysteine peptide fold change (50 µM): 0.297

KNTC1_P50748_390_CLTEALPENR (UniProt P50748)
probe-labelled cysteine peptide fold change (10 µM): -0.0246
probe-labelled cysteine peptide fold change (50 µM): -0.0768

LARP1_Q6PKG0_238_NGDEDCQR (UniProt Q6PKG0)
probe-labelled cysteine peptide fold change (10 µM): 0.15
probe-labelled cysteine peptide fold change (50 µM): 0.117

L3MBTL2_Q969R5_446_LEAIDPLNLGNICVATVCK (UniProt Q969R5)
probe-labelled cysteine peptide fold change (10 µM): 0.279
probe-labelled cysteine peptide fold change (50 µM): 0.277

KIF2A_O00139_309_GMATCFAYGQTGSGK (UniProt O00139)
probe-labelled cysteine peptide fold change (10 µM): 0.00291
probe-labelled cysteine peptide fold change (50 µM): -0.0292

KPNA4_O00629_417_KDQVAYLIQQNVIPPFCNLLTVK (UniProt O00629)
probe-labelled cysteine peptide fold change (10 µM): 0.0986
probe-labelled cysteine peptide fold change (50 µM): -0.0199

KIZ_Q2M2Z5_50_LYEYNQSDTCR (UniProt Q2M2Z5)
probe-labelled cysteine peptide fold change (10 µM): 0.0174
probe-labelled cysteine peptide fold change (50 µM): -0.0661

LARS2_Q15031_578_FFSHFCHDQK (UniProt Q15031)
probe-labelled cysteine peptide fold change (10 µM): 0.293
probe-labelled cysteine peptide fold change (50 µM): 0.211

LCMT1_Q9UIC8_250_QCDLAGVETCK (UniProt Q9UIC8)
probe-labelled cysteine peptide fold change (10 µM): 0.0214
probe-labelled cysteine peptide fold change (50 µM): 0.123

LAP3_P28838_445_QVVDCQLADVNNIGK (UniProt P28838)
probe-labelled cysteine peptide fold change (10 µM): 0.106
probe-labelled cysteine peptide fold change (50 µM): 0.131

KLC1_Q07866_390_NNLASCYLK (UniProt Q07866)
probe-labelled cysteine peptide fold change (10 µM): -0.2
probe-labelled cysteine peptide fold change (50 µM): -0.00724

KLC4_Q9NSK0_489_LEAAETLEECALR (UniProt Q9NSK0)
probe-labelled cysteine peptide fold change (10 µM): 0.12
probe-labelled cysteine peptide fold change (50 µM): 0.000758

KNTC1_P50748_980_KDECEEMLK (UniProt P50748)
probe-labelled cysteine peptide fold change (10 µM): -0.0221
probe-labelled cysteine peptide fold change (50 µM): -0.13

LANCL2_Q9NS86_248_CPLLYQWHR (UniProt Q9NS86)
probe-labelled cysteine peptide fold change (10 µM): -0.00504
probe-labelled cysteine peptide fold change (50 µM): 0.0157

LARS_Q9P2J5_554_NLETFCEETR (UniProt Q9P2J5)
probe-labelled cysteine peptide fold change (10 µM): -0.00821
probe-labelled cysteine peptide fold change (50 µM): -0.0556

KNTC1_P50748_1892_ALQCLFYLADK (UniProt P50748)
probe-labelled cysteine peptide fold change (10 µM): 0.211
probe-labelled cysteine peptide fold change (50 µM): 0.229

KIFC1_Q9BW19_557_GLQCGAPLSLVDLAGSER (UniProt Q9BW19)
probe-labelled cysteine peptide fold change (10 µM): 0.0546
probe-labelled cysteine peptide fold change (50 µM): 0.0532

KMT2B_Q9UMN6_1447_QLHPGPCGLQAVSQR (UniProt Q9UMN6)
probe-labelled cysteine peptide fold change (10 µM): 0.063
probe-labelled cysteine peptide fold change (50 µM): 0.164

LAIR1_Q6GTX8_101_CIYYKPPK (UniProt Q6GTX8)
probe-labelled cysteine peptide fold change (10 µM): 0.0604
probe-labelled cysteine peptide fold change (50 µM): 0.112

LARS_Q9P2J5_70_CEFAVGYQR (UniProt Q9P2J5)
probe-labelled cysteine peptide fold change (10 µM): 0.0939
probe-labelled cysteine peptide fold change (50 µM): -0.0463

LCP1_P13796_42_AACLPLPGYR (UniProt P13796)
probe-labelled cysteine peptide fold change (10 µM): -0.0884
probe-labelled cysteine peptide fold change (50 µM): -0.216

KIF3A_Q9Y496_230_SHAIFTITIECSEK (UniProt Q9Y496)
probe-labelled cysteine peptide fold change (10 µM): 0.112
probe-labelled cysteine peptide fold change (50 µM): -0.0259

LCORL_Q8N3X6_193_NGSIGPSIVCK (UniProt Q8N3X6)
probe-labelled cysteine peptide fold change (10 µM): 0.0711
probe-labelled cysteine peptide fold change (50 µM): -0.0509

L3MBTL2_Q969R5_531_LFNMDCPNHGFK (UniProt Q969R5)
probe-labelled cysteine peptide fold change (10 µM): -0.0671
probe-labelled cysteine peptide fold change (50 µM): -0.122

KMT2C_Q8NEZ4_417_GYHTFCLQPVMK (UniProt Q8NEZ4)
probe-labelled cysteine peptide fold change (10 µM): 0.0207
probe-labelled cysteine peptide fold change (50 µM): 0.0109

LAS1L_Q9Y4W2_60_AEWDQVTVYLFCDDHK (UniProt Q9Y4W2)
probe-labelled cysteine peptide fold change (10 µM): 0.323
probe-labelled cysteine peptide fold change (50 µM): 0.479

KIF20A_O95235_87_QEDQGCVR (UniProt O95235)
probe-labelled cysteine peptide fold change (10 µM): 0.109
probe-labelled cysteine peptide fold change (50 µM): 0.0259

KRI1_Q8N9T8_667_LLGPTVMLGGCEFSR (UniProt Q8N9T8)
probe-labelled cysteine peptide fold change (10 µM): -0.0896
probe-labelled cysteine peptide fold change (50 µM): -0.0608

KPNB1_Q14974_223+228_HFIMQVVCEATQCPDTR (UniProt Q14974)
probe-labelled cysteine peptide fold change (10 µM): 0.163
probe-labelled cysteine peptide fold change (50 µM): 0.0725

LCP1_P13796_618_MVMTVFACLMGK (UniProt P13796)
probe-labelled cysteine peptide fold change (10 µM): -0.236
probe-labelled cysteine peptide fold change (50 µM): -0.0702

KYNU_Q16719_401_GCQLTITFSVPNK (UniProt Q16719)
probe-labelled cysteine peptide fold change (10 µM): -0.0576
probe-labelled cysteine peptide fold change (50 µM): 0.034

KLC3_Q6P597_314_EAEPLCQR (UniProt Q6P597)
probe-labelled cysteine peptide fold change (10 µM): 0.105
probe-labelled cysteine peptide fold change (50 µM): 0.11

LARP7_Q4G0J3_148_CGNVVYISIPHYK (UniProt Q4G0J3)
probe-labelled cysteine peptide fold change (10 µM): -0.0903
probe-labelled cysteine peptide fold change (50 µM): -0.087

KIF5B_P33176_174_FVCSPDEVMDTIDEGK (UniProt P33176)
probe-labelled cysteine peptide fold change (10 µM): 0.094
probe-labelled cysteine peptide fold change (50 µM): -0.199

KNL1_Q8NG31_253_CSAFPDVPDK (UniProt Q8NG31)
probe-labelled cysteine peptide fold change (10 µM): -0.14
probe-labelled cysteine peptide fold change (50 µM): -0.11

L3HYPDH_Q96EM0_39_IVLAGCPEVSGPTLLAK (UniProt Q96EM0)
probe-labelled cysteine peptide fold change (10 µM): 0.093
probe-labelled cysteine peptide fold change (50 µM): 0.0603

KLHL26_Q53HC5_383_SGEGAVDACYR (UniProt Q53HC5)
probe-labelled cysteine peptide fold change (10 µM): 0.33
probe-labelled cysteine peptide fold change (50 µM): 0.211
